The values below come from the supplement of paper PMC11006884.

Sequences of proteins named here, by UniProt entry; tags and fusion partners are left off. A change or cut given only in a name is not applied to a line headed by its entry.
UniProt Q05639, whole entry, looked up: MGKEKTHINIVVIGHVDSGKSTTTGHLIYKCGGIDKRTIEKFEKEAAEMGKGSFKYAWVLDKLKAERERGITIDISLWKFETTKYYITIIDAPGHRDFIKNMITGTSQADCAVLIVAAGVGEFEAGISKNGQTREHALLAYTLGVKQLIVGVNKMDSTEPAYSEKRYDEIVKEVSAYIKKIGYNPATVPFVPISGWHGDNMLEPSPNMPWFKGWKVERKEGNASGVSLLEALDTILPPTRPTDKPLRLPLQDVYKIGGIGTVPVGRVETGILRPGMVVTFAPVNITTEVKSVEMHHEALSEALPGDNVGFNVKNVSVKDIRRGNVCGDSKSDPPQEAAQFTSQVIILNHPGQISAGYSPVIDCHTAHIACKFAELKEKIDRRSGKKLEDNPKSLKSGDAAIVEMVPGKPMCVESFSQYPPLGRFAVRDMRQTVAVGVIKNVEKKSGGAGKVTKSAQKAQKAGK
UniProt Q12789: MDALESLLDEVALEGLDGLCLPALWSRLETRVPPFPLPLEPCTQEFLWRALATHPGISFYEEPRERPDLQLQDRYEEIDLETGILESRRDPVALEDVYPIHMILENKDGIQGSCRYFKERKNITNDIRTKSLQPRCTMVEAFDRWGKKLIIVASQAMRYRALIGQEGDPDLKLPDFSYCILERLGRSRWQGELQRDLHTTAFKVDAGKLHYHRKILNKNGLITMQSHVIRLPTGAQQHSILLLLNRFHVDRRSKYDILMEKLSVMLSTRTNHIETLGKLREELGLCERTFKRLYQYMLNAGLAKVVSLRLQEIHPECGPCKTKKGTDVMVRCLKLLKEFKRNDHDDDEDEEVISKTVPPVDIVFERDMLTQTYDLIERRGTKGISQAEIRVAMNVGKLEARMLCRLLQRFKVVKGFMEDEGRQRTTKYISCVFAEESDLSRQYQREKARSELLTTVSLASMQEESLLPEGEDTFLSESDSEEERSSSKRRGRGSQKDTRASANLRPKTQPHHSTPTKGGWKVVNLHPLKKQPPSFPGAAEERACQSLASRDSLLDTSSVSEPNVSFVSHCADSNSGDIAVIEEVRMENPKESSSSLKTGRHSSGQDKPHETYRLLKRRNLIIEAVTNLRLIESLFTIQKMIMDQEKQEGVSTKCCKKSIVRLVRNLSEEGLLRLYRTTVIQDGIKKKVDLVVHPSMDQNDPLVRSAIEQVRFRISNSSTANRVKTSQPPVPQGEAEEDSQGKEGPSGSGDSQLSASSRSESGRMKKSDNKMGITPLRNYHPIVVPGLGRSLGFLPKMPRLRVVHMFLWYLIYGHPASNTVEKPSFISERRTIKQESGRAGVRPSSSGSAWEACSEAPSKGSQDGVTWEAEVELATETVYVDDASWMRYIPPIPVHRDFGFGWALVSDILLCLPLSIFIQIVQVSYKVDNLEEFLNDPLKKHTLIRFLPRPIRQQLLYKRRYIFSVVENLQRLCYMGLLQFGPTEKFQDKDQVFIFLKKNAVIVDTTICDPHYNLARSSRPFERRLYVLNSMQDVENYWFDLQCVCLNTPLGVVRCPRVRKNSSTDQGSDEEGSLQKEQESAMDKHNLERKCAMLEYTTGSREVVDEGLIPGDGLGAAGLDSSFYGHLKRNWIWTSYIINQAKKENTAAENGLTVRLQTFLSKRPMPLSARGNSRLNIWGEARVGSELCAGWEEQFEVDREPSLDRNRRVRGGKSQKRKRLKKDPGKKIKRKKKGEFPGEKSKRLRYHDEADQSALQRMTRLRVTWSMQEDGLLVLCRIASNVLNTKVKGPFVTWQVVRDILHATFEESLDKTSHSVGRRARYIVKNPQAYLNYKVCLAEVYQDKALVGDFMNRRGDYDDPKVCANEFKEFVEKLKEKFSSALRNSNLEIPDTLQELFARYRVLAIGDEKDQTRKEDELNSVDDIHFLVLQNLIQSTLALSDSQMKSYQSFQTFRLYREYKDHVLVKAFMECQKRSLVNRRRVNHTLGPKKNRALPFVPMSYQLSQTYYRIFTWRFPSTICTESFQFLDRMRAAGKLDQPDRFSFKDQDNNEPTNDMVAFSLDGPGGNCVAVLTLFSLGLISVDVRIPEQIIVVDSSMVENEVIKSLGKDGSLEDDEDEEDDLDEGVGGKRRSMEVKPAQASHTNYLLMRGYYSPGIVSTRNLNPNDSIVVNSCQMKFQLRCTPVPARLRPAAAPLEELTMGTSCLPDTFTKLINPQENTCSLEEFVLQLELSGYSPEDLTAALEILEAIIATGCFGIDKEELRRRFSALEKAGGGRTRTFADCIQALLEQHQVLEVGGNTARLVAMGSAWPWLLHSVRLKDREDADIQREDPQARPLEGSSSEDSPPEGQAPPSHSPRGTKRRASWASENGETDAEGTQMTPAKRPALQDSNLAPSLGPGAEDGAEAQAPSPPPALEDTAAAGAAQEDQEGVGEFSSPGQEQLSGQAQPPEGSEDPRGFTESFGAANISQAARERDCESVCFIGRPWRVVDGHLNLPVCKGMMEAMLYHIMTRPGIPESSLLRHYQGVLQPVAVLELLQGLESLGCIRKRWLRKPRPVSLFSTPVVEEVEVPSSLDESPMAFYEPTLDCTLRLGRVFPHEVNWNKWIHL
UniProt Q12931: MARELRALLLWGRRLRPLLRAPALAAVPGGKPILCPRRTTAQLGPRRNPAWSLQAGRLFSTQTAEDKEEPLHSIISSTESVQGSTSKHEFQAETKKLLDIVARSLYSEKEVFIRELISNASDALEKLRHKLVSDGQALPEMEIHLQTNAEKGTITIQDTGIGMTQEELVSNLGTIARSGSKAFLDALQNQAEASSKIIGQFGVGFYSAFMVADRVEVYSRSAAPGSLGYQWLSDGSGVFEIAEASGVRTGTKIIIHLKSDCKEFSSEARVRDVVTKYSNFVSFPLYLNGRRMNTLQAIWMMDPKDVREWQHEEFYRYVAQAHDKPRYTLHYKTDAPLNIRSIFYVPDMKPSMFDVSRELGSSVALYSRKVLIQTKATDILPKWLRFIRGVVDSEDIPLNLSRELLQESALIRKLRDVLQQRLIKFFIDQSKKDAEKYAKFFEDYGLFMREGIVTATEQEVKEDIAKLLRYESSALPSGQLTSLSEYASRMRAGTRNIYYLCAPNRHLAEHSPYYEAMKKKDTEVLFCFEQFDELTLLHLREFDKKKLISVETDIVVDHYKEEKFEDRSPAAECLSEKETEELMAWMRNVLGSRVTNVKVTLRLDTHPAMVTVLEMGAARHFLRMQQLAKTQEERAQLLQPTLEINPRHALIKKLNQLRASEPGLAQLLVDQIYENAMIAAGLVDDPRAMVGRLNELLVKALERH
UniProt Q13148, whole entry, looked up: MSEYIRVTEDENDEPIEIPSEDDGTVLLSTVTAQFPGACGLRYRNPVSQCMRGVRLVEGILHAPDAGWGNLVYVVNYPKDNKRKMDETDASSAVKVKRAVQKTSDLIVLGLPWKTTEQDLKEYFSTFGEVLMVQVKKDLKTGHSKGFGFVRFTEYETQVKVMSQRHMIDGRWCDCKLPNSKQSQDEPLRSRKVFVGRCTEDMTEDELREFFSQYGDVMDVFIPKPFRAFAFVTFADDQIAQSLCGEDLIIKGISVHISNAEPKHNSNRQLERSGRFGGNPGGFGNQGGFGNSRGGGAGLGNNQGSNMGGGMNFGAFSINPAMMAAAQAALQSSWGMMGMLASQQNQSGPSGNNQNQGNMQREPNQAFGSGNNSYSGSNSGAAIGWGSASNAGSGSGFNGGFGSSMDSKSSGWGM
UniProt Q06587: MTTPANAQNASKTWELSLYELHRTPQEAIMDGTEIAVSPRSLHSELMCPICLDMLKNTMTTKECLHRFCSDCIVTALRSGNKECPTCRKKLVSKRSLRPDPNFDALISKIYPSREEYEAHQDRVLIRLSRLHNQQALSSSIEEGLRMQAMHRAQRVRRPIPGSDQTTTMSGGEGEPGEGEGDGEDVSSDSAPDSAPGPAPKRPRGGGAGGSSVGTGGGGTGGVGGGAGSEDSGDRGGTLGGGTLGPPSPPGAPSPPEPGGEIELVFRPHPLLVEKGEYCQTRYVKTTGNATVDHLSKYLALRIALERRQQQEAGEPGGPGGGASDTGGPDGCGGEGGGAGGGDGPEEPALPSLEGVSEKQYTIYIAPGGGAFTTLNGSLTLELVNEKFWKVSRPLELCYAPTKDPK
UniProt Q12948: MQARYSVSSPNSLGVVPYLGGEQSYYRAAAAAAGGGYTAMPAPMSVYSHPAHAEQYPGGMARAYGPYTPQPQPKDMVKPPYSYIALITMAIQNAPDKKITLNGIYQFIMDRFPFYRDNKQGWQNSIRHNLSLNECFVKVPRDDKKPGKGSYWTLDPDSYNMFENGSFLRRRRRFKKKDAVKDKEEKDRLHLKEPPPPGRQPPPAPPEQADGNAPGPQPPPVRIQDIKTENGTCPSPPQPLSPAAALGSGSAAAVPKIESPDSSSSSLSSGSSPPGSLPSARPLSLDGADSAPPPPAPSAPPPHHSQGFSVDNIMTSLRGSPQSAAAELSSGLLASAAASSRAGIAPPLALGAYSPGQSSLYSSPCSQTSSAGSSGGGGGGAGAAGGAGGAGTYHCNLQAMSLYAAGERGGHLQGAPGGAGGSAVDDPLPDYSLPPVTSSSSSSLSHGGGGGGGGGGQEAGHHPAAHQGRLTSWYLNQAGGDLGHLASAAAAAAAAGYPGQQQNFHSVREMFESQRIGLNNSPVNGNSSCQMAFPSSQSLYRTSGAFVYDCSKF
UniProt Q07955, whole entry, looked up: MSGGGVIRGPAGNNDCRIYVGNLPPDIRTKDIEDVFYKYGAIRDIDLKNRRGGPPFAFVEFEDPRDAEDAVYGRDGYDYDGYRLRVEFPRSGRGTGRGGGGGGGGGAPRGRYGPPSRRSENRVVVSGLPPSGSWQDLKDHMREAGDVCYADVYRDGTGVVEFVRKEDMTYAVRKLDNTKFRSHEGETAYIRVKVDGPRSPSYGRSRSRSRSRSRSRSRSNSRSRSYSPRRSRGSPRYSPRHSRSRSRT
UniProt Q12824, whole entry, looked up: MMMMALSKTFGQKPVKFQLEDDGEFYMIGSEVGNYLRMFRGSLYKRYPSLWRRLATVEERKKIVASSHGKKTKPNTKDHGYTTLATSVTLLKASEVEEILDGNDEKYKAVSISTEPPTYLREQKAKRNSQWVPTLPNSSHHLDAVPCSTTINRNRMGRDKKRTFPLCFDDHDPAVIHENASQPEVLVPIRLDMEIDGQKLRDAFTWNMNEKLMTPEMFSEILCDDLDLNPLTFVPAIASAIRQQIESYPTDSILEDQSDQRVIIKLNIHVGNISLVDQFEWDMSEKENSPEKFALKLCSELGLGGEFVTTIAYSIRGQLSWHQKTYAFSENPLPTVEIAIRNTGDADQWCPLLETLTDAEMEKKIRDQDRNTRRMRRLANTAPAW

Most of the targets with a hit are listed elsewhere, so they are rarer here than in the full data. This is a noisy data set. The list shows a part of the results, in another mix than the full data.

Compound in this assay: COC(=O)/C=C/c1ccccc1 [methyl cinnamate]
In words: log2 ratio of iodoacetamide-alkyne labeling of the cysteine site, DMSO over compound (competition); higher = stronger covalent engagement of the cysteine by the compound, active = 1 or more. Conditions: 500 µM; treatment time 1 h; system: HEK293T cell lysate. An outline of the steps: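 HEK293T lysate (2 mg/mL) was treated with DMSO or electrophile (500 µM, 1 h, ambient temperature), then iodoacetamide alkyne (1 h), clicked to sCIP-TMT reagents, pooled, trypsin-digested overnight at 37 °C, streptavidin-enriched and acid-eluted. Peptides were run on Orbitrap Eclipse LC-MS/MS with FAIMS and quantified in FragPipe. The log2 competition ratio per cysteine is mean control-channel over mean compound-channel reporter intensity. Duplicate channels and three replicates were used, and cysteines quantified in only one replicate were excluded.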
Turning to EEF1A2 C411 (UniProt Q05639), the “log2 ratio of iodoacetamide-alkyne labeling” value (“log2 ratio” for short) is inactive: 0.115.

Take GTF3C1 C1977 (UniProt Q12789): the “log2 ratio” value is inactive: 0.162.

For GTF3C1 C1783 (UniProt Q12789), the “log2 ratio” value is inactive: -0.0644.

In the case of TRAP1 C573 (UniProt Q12931), the “log2 ratio” value is inactive: 0.01.

Regarding CSTF3 C536 (UniProt Q12996), the “log2 ratio” value was inactive: 0.112.

Consider UniProt Q12768_C21, for which the “log2 ratio” value is inactive: 0.417.

On to TARDBP C198 (UniProt Q13148), for which the “log2 ratio” value was inactive: 0.0226.

With EP300 C1164 (UniProt Q09472), the “log2 ratio” value was inactive: 0.124.

GTF3C1 C2089 (UniProt Q12789): the “log2 ratio” value was inactive: 0.271.

Regarding RING1 C69 (UniProt Q06587), the “log2 ratio” value was inactive: 0.124.

With UniProt Q12948_C529, the “log2 ratio” value was inactive: 0.0687.

On to UniProt Q07955_C16, for which the “log2 ratio” value was inactive: 0.263.

In the case of AKAP12 C1399 (UniProt Q02952), the “log2 ratio” value was inactive: 0.331.

NOTCH2 C2085 (UniProt Q04721): the “log2 ratio” value is inactive: -0.0033.

On to UniProt Q03188_C612, for which the “log2 ratio” value was inactive: 0.266.

For UniProt Q02750_C207, the “log2 ratio” value was inactive: 0.0617.

Regarding GTF3C1 C1091 (UniProt Q12789), the “log2 ratio” value is inactive: 0.155.

Turning to UniProt Q12824_C147, the “log2 ratio” value is inactive: -0.0891.

With POLE C2148 (UniProt Q07864), the “log2 ratio” value is inactive: -0.109.

For the target AKAP12 C1479 (UniProt Q02952), the “log2 ratio” value is inactive: 0.519.

With CEBPZ C374 (UniProt Q03701), the “log2 ratio” value was inactive: 0.0682.

Regarding TP53BP1 C101 (UniProt Q12888), the “log2 ratio” value is inactive: -0.0218.
